# Test results as given in PubChem BioAssay AID651804 (National Center for Advancing Translational Sciences (NCATS), 2012).
# Amino acid sequences for entries named in this document (tags omitted). A change or cut given only in a name is not applied to a line headed by its entry.
# UniProt P11308: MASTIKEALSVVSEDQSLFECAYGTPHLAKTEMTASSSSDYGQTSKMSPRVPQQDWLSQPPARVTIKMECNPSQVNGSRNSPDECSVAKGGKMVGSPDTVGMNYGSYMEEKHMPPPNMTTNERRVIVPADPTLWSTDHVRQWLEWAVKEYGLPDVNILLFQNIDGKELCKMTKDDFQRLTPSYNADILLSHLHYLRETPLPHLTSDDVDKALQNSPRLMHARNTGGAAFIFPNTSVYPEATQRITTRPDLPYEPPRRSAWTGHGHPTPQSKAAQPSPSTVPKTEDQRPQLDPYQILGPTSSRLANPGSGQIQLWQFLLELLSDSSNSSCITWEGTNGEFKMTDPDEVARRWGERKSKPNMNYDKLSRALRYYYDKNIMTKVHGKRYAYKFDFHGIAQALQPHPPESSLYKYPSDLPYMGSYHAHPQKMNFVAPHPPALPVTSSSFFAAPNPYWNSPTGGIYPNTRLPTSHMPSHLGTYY
# Among all 1,200 compounds or so, about 20 (2%) were called active. Another 23% or so got no clear call; they are omitted. Calls come from the whole dose curve; as a rule, active = well fitted inhibition curve with a large enough effect; inconclusive = small, poorly fitted or top-dose-only effect; inactive = no such curve, though single readings can be large or run the other way. The list shows a part of the results.
# Biological target: Transcriptional regulator ERG (Homo sapiens) (UniProt P11308)
# Assay: qHTS for Small Molecule Inhibitors of the ERG Ets/DNA interaction: HTRF assay against cherry picks
# Conditions: His-ERG Ets domain with biotin-DNA; series mostly up to 154 µM; activity change, negative = inhibition: at the top concentration
# In short: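 Compounds were incubated 10 min at RT with ERG Ets domain and biotinylated DNA (each added as 200 nM solution) in pH 7.5 Tris/KCl/EDTA/DTT buffer. Binding was read as FRET (ex 320, em 615 and 665 nm) between anti-His donor and streptavidin acceptor.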
# Potency is the fitted concentration of half-maximal effect.
Compound,"activity change, negative = inhibition",Potency
COc1ccc(C2c3[nH]c4ccccc4c3C[C@H]3C(=O)N(c4ccccc4C(=O)N4CCC[C@@H]4C(=O)O)C(=O)N23)cc1 (stereo not given in full),inactive: -21.1%,
COCCCC/C(=N\OCCN)c1ccc(C(F)(F)F)cc1,inactive: -29.4%,
COc1ccc([N+](=O)[O-])c(OC)c1C(=O)NC(=O)Nc1c(F)c(F)c(F)c(F)c1F,inactive: -14.5%,
CCOC(=O)C1CCCN(C(=O)c2cc3cc(OC)c(OC)cc3[nH]2)C1 (stereo not given),inactive: -21.2%,
Oc1ccc(NCc2cccc(OCc3ccc(F)cc3)c2)cc1,inactive: 7.9%,
CS(=O)(=O)c1ccc([C@@H](O)[C@@H](CF)NC(=O)C(Cl)Cl)cc1,inactive: -22.9%,
COCCN(C(=O)COC(=O)C1(c2ccccc2)CC1)c1c(N)n(CC(C)C)c(=O)[nH]c1=O,inactive: -5.04%,
O=C(COc1ccc(S(=O)(=O)N2CCOCC2)cc1Cl)NCCCn1ccnc1,inactive: -21.4%,
Oc1ccc(NCc2ccc(OCc3ccccc3)cc2)cc1,inactive: -24.2%,
CCc1ccc(Nc2ncnc3nc[nH]c23)cc1,inactive: -29.9%,
CC(NC(=O)c1cn(C)c2ccc(S(=O)(=O)N3CCCC3)cc2c1=O)c1ccccc1 (stereo not given),inactive: -13.9%,
O=C(CSc1nnnn1-c1ccccc1)Nc1nc(-c2ccccc2)ns1,inactive: -0.955%,
COc1ccc(NC(=S)NCc2ccc3c(c2)cc(C)n3C)cc1,inactive: 42.5%,
O=C(COC(=O)c1cc(-c2cccc3ccccc23)nc2ccccc12)NC1CCS(=O)(=O)C1 (stereo not given),inactive: 45.1%,
COc1ccc(-c2noc(CSc3nc4ccccc4c(=O)n3-c3ccccc3)n2)cc1,inactive: -26.3%,
CC1(C)CC(=O)/C(=C\c2cccc([N+](=O)[O-])c2)C(C)(C)N1,inactive: -6.21%,
Cc1cnc(C(=O)Nc2ccccc2-c2ccc(C)o2)cn1,inactive: -25.9%,
COC(=O)c1cc(NC(=O)c2c(Cl)cnn2C)cc(C(=O)OC)c1,inactive: -7.9%,
Cc1ccc(OCCN(C)C(=O)c2cc(COc3ccc(F)cc3F)on2)cc1,inactive: -7.32%,
O=C(NNC(=O)c1ccc(S(=O)(=O)N2CCCCC2)cc1)c1ccc(F)cc1,inactive: -25.6%,
CCOc1ccc(CN2CCNC(=O)C2CC(=O)NCCCn2ccnc2)cc1 (stereo not given),inactive: -11.7%,
COc1cc(CCC(=O)OCC(=O)NC2CCCC(C)C2C)cc(OC)c1OC (stereo not given),inactive: 6.68%,
COc1ccc(CCN(Cc2cccs2)S(=O)(=O)c2ccc(-n3cnnn3)c(OC)c2)cc1OC,inactive: -23.9%,
Cc1occc1C(=O)NNS(=O)(=O)c1ccc(Cl)cc1,inactive: -23.6%,
O=C1COc2ccc(S(=O)(=O)Nc3ccc4c(c3)OCO4)cc2N1,inactive: -27.1%,
S=c1[nH]nc(Cc2n[nH]c(=S)n2-c2ccccc2)n1-c1ccccc1,inactive: -5.52%,
CCOc1ccccc1N1CCN(C(=O)c2cc(S(=O)(=O)N(C)C)ccc2N2CCCC2)CC1,inactive: -17.2%,

# Taken from above:
# Entry for S=c1[nH]nc(Cc2n[nH]c(=S)n2-c2ccccc2)n1-c1ccccc1 under activity change, negative = inhibition: inactive: -5.52%
# Entry for CC(NC(=O)c1cn(C)c2ccc(S(=O)(=O)N3CCCC3)cc2c1=O)c1ccccc1 (stereo not given) under activity change, negative = inhibition: inactive: -13.9%

# (listing goes on)

Compound,"activity change, negative = inhibition",Potency
Cc1nnc(SCC(=O)NNC(=O)c2ccccc2)n1-c1ccccc1,inactive: -8.49%,
CCC1Oc2ccccc2N(CC(=O)NC2CC2)C1=O (stereo not given),inactive: -22.8%,
Cc1cc(C)cc(NC(=O)[C@H](Cc2c[nH]c3ccccc23)NC(=O)[C@@H]2Cc3ccccc3CN2)c1,inactive: -32.7%,
COCCN1CCN(C(=O)C2CCC(=O)N(Cc3ccccc3OC)C2)CC1 (stereo not given),inactive: -27.5%,
Cn1nnnc1-c1cc(Cl)cc(Cl)c1,inactive: -22.2%,
CCc1nn2c(-c3ccco3)ccnc2c1-c1ccc(F)cc1,inactive: -20.9%,
O=C(NCCc1ccc(Cl)cc1)/C(=C/c1cccnc1)NC(=O)c1ccccc1,inactive: 4.83%,
Cn1c(=O)c2sccc2n2c(CCCC(=O)NCc3ccco3)nnc12,inactive: -26.9%,
CC(=O)Nc1cccc(C(=O)NC2CCCc3c2cnn3-c2ccc(C(C)(C)C)cc2)c1 (stereo not given),inactive: -16.8%,
O=C1c2ccccc2C(=O)N1CCOc1ccccc1Br,inactive: -30.6%,
CCOC(=O)C1CCN(C(=O)c2cccc(S(=O)(=O)N3CCCc4ccccc43)c2)CC1,inactive: -19.9%,
CCCn1c(SCC(=O)c2cc(C)n(-c3ccc4c(c3)OCO4)c2C)n[nH]c1=O,inactive: -21.4%,
CCOc1cccc(CNc2ccc(O)cc2)c1OCc1ccc(Cl)cc1Cl,inactive: -28.8%,
Cc1cc2cc(CNC(=O)C(C)Oc3ccccc3)ccc2n1C (stereo not given),inactive: -9.92%,
N#CCCN(C(=S)NC(=O)C1CCCCC1)c1ccccc1F,inactive: -20.2%,
CC(NC(=O)c1nn(C)c2c1CS(=O)(=O)c1ccccc1-2)c1ccccc1 (stereo not given),inactive: -22%,
COc1cc(NC(=O)CCNC(=O)Cn2cnc3sc4c(c3c2=O)CCCC4)cc(OC)c1OC,inactive: -24.1%,
O=C1CC(Cc2ccccc2)C(=O)N1c1ccc(Cl)cn1 (stereo not given),inactive: -9.76%,
O=C(COC(=O)/C=C/c1cccs1)Nc1ccc(F)cc1,inactive: -29.6%,
CCc1ccc2c(c1)c(=O)c(C(=O)c1ccc(C)cc1)cn2CC(=O)Nc1ccccc1C,inactive: 65.3%,
COc1ccc(-c2ccc(SCC(=O)NCc3ccc4c(c3)OCO4)nn2)cc1OC,inactive: -27.2%,
Cc1cc(C)cc(C(=O)Nc2nnc(SCC(=O)NCC3CCCO3)s2)c1 (stereo not given),inactive: -19.3%,
CCN1C(=O)C(CC(=O)NCCc2ccccc2)N(NC(=O)c2cccnc2)C1=S (stereo not given),inactive: -6.95%,
CCOC(=O)N1CCC(NC(=O)Cc2ccccc2)CC1,inactive: -2.97%,
CC(C)Oc1cccc(C(=O)C2CCCN(Cc3ccc4nonc4c3)C2)c1 (stereo not given),inactive: -26.3%,
C=CCn1c(CNC(=O)c2ccccc2F)nnc1SCc1nc2ccccc2c(=O)[nH]1,inactive: 1.75%,
OCCC1CN(CCCc2ccccc2)CCN1CCc1ccccc1 (stereo not given),inactive: -19.8%,

# 2 entries drawn at random from the list so far, as already listed:
Compound,"activity change, negative = inhibition",Potency
COC(=O)c1cc(NC(=O)c2c(Cl)cnn2C)cc(C(=O)OC)c1,inactive: -7.9%,
O=C(COC(=O)/C=C/c1cccs1)Nc1ccc(F)cc1,inactive: -29.6%,

# Continuation.

Compound,"activity change, negative = inhibition",Potency
CCCCc1nc2sc3c(=O)[nH]c(=S)[nH]c3c2c2c1CCC2,inactive: -4.24%,
CCN(CC)Cc1c(O)c(Cl)cc2c(C)cc(=O)oc12,inactive: -19.7%,
FC(F)(F)COc1cc(-c2nnc(SCc3ccccc3)n2Cc2ccco2)cc(OCC(F)(F)F)n1,inactive: -22.1%,
CS(=O)(=O)NN1C(=O)c2ccccc2NC1c1cccc(O)c1 (stereo not given),inactive: -27.5%,
O=C(COC(=O)c1ccc(F)cc1F)c1ccc[nH]1,inactive: -3.98%,
Oc1ccc(NCc2ccccc2OCc2ccccc2F)cc1,inactive: -22.7%,
Oc1ccc(N=Cc2sc3ccccc3c2Cl)cc1,inactive: -29.8%,
c1ccc(Oc2ncnc3ccccc23)cc1,inactive: -23.6%,
NS(=O)(=O)c1cccc(NC(=O)COC(=O)CSCc2ccccc2)c1,inactive: -20.5%,
COc1cccc(C(=O)c2c(C)c(CCC#N)n3ccccc23)c1OC,inactive: -17.2%,
O=C(O)CC(CC(=O)N1CCOCC1)c1ccccc1 (stereo not given),inactive: 8.86%,
COc1cccc(CCN2C(=O)C(=O)N([C@@H](CNCc3ccccc3)Cc3ccccc3F)C[C@@H]2C(C)(C)C)c1,inactive: -9.66%,
O=C(NCCCN1CCOCC1)c1ccc(CSc2ccc(Cl)cc2)cc1,inactive: -4.99%,
COc1ccc(C(=O)NCc2csc(C)n2)cc1OC1CCN(C(C)=O)CC1,inactive: -15.2%,
Cc1ccc(NS(=O)(=O)c2ccc(NC(=O)c3ccccc3C(=O)O)cc2)cc1C,inactive: -25.4%,
Cc1ccc2sc(NNC(=O)c3ccc4c(c3)OCCO4)nc2c1C,inactive: -17.2%,
CN(CCO)C1=NS(=O)(=O)c2cc([N+](=O)[O-])ccc21,,active: 28.2 µM
Cc1ccc(S(=O)(=O)N2CCOCC2)cc1NC(=O)CSc1nccn1C,inactive: -1.91%,
COc1ccccc1CN(C)C(=O)C(NC(=O)Cc1cccc2ccccc12)C(C)C (stereo not given),inactive: -1.11%,
CCOc1ccccc1C1CC(c2ccc(Br)cc2)Nc2nc(N)nn21 (stereo not given),inactive: -9.23%,
CCCC(=O)Nn1cnc2c(c1=O)C1(CCCCC1)Cc1ccccc1-2,inactive: -1.01%,
O=C(c1ccccc1)N1C(=O)C(c2ccccc2)Oc2ccccc21 (stereo not given),inactive: -6.05%,
CCCCCC(=O)NC(=S)Nc1cccc(-c2nc3ncccc3o2)c1,inactive: -21.6%,
CC1(C)C2CCC1(CS(=O)(=O)Nc1ccccc1)C(=O)C2 (stereo not given),inactive: -1.49%,
CC(=O)Nc1nnc(-c2c(-c3c(Cl)cccc3Cl)noc2C)o1,inactive: -7.69%,
CCCCc1nn2c(=O)cc(COC(=O)c3ccccc3NC(=O)C(C)(C)C)nc2s1,inactive: 6.1%,
Oc1ccc(NCc2cccc(OCc3ccccc3)c2)cc1,inactive: -3.5%,

Compound,"activity change, negative = inhibition",Potency
Cc1ccc2c(c1)N(CCC(=O)NC1CCCCC1)C(=O)CO2,inactive: -26.9%,
c1ccc(-c2cc3ccccc3[nH]2)cc1,inactive: -15.6%,
Cc1cccc(NC(=O)c2cc3ccccc3nc2C)c1,inactive: -27.3%,
CCCCn1c(N)c(N(CCOC)C(=O)c2ccc(S(=O)(=O)N3CCCCC3)cc2)c(=O)[nH]c1=O,inactive: 11.4%,
COc1ccc(-n2c(SCC(C)=O)nc3sc(C)c(C)c3c2=O)cc1,inactive: 1.8%,
CCCCn1c(=O)[nH]c2nc3cc(N)ccc3nc2c1=O,,active: 50.1 µM
O=C(CCNC(=O)c1ccccc1Cl)NCCCSc1ccccc1,inactive: 3.98%,
Cc1cccc(/C=N/NC(=O)NC23CC4CC(CC(C4)C2)C3)n1,inactive: -19.3%,
CCN1CCCC(OC(=O)Nc2ccccc2)C1 (stereo not given),inactive: -15.8%,
Cc1cc(C)c(S(=O)(=O)N2CCN(C(=O)N3CCOCC3)CC2)c(C)c1,inactive: 1.33%,
Cc1ccc([C@@H]2C3COCC=C3C(C#N)=C(N)C2(C#N)C#N)o1 (stereo not given in full),inactive: -20.7%,
CC1(C)CC(=O)C2=C(C1)OC(=O)CC2c1cccs1 (stereo not given),inactive: -7.69%,
CCOc1ccc(S(=O)(=O)N2CCC(C(=O)NCC3CCCO3)CC2)cc1C (stereo not given),inactive: -18.4%,
Cc1ccc(NC(=O)CN2C(=O)C3CC=C(Cl)CC3C2=O)cc1 (stereo not given),inactive: 4.35%,
Cc1cccc(CC(=O)NCCn2c(C)cc3ccccc32)c1,inactive: -24%,
COc1ccc(COC(=O)C2=C(C)NC(=O)NC2c2ccccc2)cc1 (stereo not given),inactive: -26.4%,
Cc1c(OC(C(=O)O)c2ccccc2)ccc2c(-c3ccccc3)cc(=O)oc12 (stereo not given),inactive: -47.6%,
Cc1cccc(NC(=O)NCCCCc2ccccc2)c1,inactive: -6.68%,
COc1ccc(/C=N/n2c(-c3n[nH]c4c3CCC4)n[nH]c2=S)cc1,inactive: -20.7%,
CN1C(=O)NC(NC(=O)c2ccncc2)(C(F)(F)F)C1=O (stereo not given),inactive: -2.39%,
CC(OC(=O)C1CCN(S(=O)(=O)c2ccccc2C(F)(F)F)CC1)C(=O)N(C)Cc1ccccc1 (stereo not given),inactive: -18.5%,
COc1cccc(NC(=O)C2CCN(c3nn4cc(-c5ccc(F)cc5)nc4s3)CC2)c1,inactive: 13.2%,
Cc1cc(C(C)(C)CC(C)(C)C)ccc1OCCOCC[N+](C)(C)Cc1ccccc1,inactive: -7%,
CCc1cc(C(=O)OC)c(NC(=O)CN2CCN(C(=O)C3CCCO3)CC2)s1 (stereo not given),inactive: 7.69%,
